Results: patent US20090104257A1 (priority 2007, published 2009)

System: S pneumoniae (ATCC 6303)
Assay: MIC of vancomycin
Format: cell-based

## CN[C@H](CC(C)C)C(=O)N[C@H]1C(=O)N[C@@H](CC(N)=O)C(=O)N[C@H]2C(=O)N[C@H]3C(=O)N[C@H](C(=O)N[C@H](C(=O)O)c4cc(O)cc(O)c4-c4cc3ccc4O)[C@H](O)c3ccc(c(Cl)c3)Oc3cc2cc(c3O[C@@H]2O[C@H](CO)[C@@H](O)[C@H](O)[C@H]2O[C@H]2C[C@](C)(N)[C@H](O)[C@H](C)O2)Oc2ccc(cc2Cl)[C@H]1O [Vancomycin, vancomycin]
  MIC: 0.25 µg/mL
